# Primary screen of a compound library

By UniProt entry, the sequences of proteins in these tests, tags left out.
UniProt E9BF75, entry or part of it: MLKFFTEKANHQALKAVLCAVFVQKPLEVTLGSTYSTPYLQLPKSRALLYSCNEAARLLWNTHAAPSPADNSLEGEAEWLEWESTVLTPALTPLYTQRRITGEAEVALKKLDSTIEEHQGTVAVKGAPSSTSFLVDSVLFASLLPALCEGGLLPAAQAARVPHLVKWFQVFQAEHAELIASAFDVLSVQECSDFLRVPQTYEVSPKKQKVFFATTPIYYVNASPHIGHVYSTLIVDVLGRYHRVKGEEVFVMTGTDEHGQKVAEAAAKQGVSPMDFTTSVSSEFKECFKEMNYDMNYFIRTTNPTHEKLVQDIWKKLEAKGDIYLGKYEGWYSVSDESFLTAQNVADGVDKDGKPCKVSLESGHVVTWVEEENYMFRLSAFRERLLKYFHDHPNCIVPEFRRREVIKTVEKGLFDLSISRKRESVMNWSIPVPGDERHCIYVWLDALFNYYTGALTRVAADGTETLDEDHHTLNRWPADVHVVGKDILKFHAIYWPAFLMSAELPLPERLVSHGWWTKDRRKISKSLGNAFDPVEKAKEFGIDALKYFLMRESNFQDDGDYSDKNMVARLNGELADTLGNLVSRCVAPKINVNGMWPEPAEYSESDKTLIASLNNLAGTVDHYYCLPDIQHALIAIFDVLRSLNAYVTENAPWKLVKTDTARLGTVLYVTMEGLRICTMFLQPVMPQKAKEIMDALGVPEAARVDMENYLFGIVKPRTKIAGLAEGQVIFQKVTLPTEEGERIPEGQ

LdMetRS: 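Methionyl-tRNA synthetase (putative), Leishmania donovani (UniProt E9BF75). Primary screen of methionyl-tRNA synthetase; the read-out is not stated. The test concentration is not given. Values are per cent inhibition. Size under these conditions: about 68,000 compounds, about 24 of them at 50% or above in at least one test.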
Mtb heat-shock: 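Assay on Mycobacterium tuberculosis, filed only as a heat shock assay from Cornell; the read-out is not stated. The concentration is filed as 10 mM, unlikely as a test dose, so the dose is not known. Direction is inferred from retests: higher values go with stronger inhibition. Of about 69,000 compounds tested this way, about 930 (1.4%) reached 50% or more in at least one test.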

Results are percentages, as filed. The controls that fix the scale are not given in the record; negative values are as filed. This is an unselected part of the compounds tested.

{"compound": "COc1cc(N2C[C@@H]3COC[C@]3(COc3ccccn3)C2)ncn1", "LdMetRS": 4.11}
{"compound": "[H][C@@]12C[C@H](C(=O)NCC(C)C)[C@@]([H])(CN(c3ncc(CC)cn3)C1)O2", "Mtb heat-shock": 3.677}
{"compound": "Cc1nc(N(C)C)nc(NCCc2ccccn2)c1C", "LdMetRS": 18.38, "Mtb heat-shock": 8.309}
{"compound": "CCN1Cc2ccccc2CC2(CCN(CC(=O)O)CC2)C1=O.O=C(O)C(F)(F)F", "Mtb heat-shock": -15.66}
{"compound": "CCOC(=O)c1ccc(Nc2ccc(OC)c(N3CCCC3=O)c2)nc1", "LdMetRS": 8.179, "Mtb heat-shock": 5.264}
{"compound": "O=C(Nc1nncs1)N1CCCN(C2CCCCC2)CC1", "LdMetRS": 13.4, "Mtb heat-shock": 12.28}
{"compound": "NC(=O)C1(Cc2ccc(-c3ccccc3)cc2)CCNC1", "stereo": "stereo not drawn", "LdMetRS": 3.165, "Mtb heat-shock": -51.12}
{"compound": "CN(C)CC(NC(=O)c1ccn(C)c(=O)c1)c1ccccc1", "stereo": "stereo not drawn", "LdMetRS": 12.53, "Mtb heat-shock": 10.19}
{"compound": "O=C(O)C(F)(F)F.[H][C@@]12OCCN(Cc3ccco3)[C@@]1([H])CC[C@@H]2OCC1CC1", "Mtb heat-shock": 28.96}
{"compound": "Cc1occc1C(=O)N1CCOCC2(CCN(C3CCOCC3)C2)C1", "stereo": "stereo not drawn", "LdMetRS": 14.12}
{"compound": "c1ccc(CNCC2Cn3nnc(-c4ccncc4)c3CO2)nc1", "stereo": "stereo not drawn", "LdMetRS": 13.49}
{"compound": "CN1C[C@@H]2CN(Cc3ccsc3)CCC[C@]2(C(=O)O)C1", "LdMetRS": 13.7}
{"compound": "CC(C)c1ccc(/C=C/CC(=O)NC2CCN(C(N)=O)CC2)cc1", "LdMetRS": 17.22, "Mtb heat-shock": -101.9}
{"compound": "COc1ccc(C(=O)NCCCNc2ncccn2)cc1F", "LdMetRS": 5.865, "Mtb heat-shock": -3.105}
{"compound": "Cc1cnn(C2CCCN(C(=O)CCCOc3cccc(F)c3)C2)c1", "stereo": "stereo not drawn", "LdMetRS": 4.861, "Mtb heat-shock": -1.577}
{"compound": "Cc1cccnc1[C@H](C)NC(=O)c1cccc(CC2CCNCC2)c1", "LdMetRS": 18.98, "Mtb heat-shock": -5.851}
{"compound": "Cc1ccccc1CN1CCCC1c1cncc(Nc2nncs2)n1", "stereo": "stereo not drawn", "LdMetRS": 9.974, "Mtb heat-shock": 103.1}
{"compound": "[H][C@]12CC[C@]([H])(CN(C(=O)c3ccccn3)C1)N(C(=O)CCC(F)(F)F)C2", "Mtb heat-shock": 1.99}
{"compound": "CCS(=O)(=O)N1CCC2(CC1)CCn1c(-c3cnn(C)c3)cnc12", "LdMetRS": 17.13}
{"compound": "Cn1c(=O)c2c(n3ncnc13)NC(=O)CC2c1cccc(Br)c1", "stereo": "stereo not drawn", "LdMetRS": 12, "Mtb heat-shock": -20.35}
{"compound": "[H][C@@]12CN(C(=O)C3CCOCC3)C[C@]1([H])OCCN2CCN(C)C", "Mtb heat-shock": -19.85}
{"compound": "O=S(=O)(C1CC1)N1CCC2(CCCN(Cc3ccccn3)C2)C1", "stereo": "stereo not drawn", "LdMetRS": 12.57}
{"compound": "COc1c(C)cnc(CN(C)C(=O)c2cccnc2N(C)C)c1C", "LdMetRS": 3.093, "Mtb heat-shock": 26.19}
{"compound": "CC(=O)c1ccc(Cl)c(Cl)c1OCC(=O)NCC(F)(F)F", "LdMetRS": 8.659, "Mtb heat-shock": -17.56}
{"compound": "CN(Cc1nccn1C)CC1CCOc2ccccc2C1", "stereo": "stereo not drawn", "LdMetRS": 4.194, "Mtb heat-shock": -13.19}
{"compound": "N#Cc1ccc(CN2CCc3sccc3C2)c(F)c1", "LdMetRS": 5.128, "Mtb heat-shock": -13.25}
{"compound": "N#CC(NC(=O)CCC1CCC1)c1cnn(-c2ccccc2)c1", "stereo": "stereo not drawn", "LdMetRS": 9.722, "Mtb heat-shock": -9.915}
{"compound": "[H][C@@]12CCN(C(=O)CCc3ccc(Cl)cc3)C[C@]1([H])OCCNC2=O", "Mtb heat-shock": 0.9433}
{"compound": "CN(Cc1cn2c(n1)CN(CC1CCOC1)CC2)Cc1ccco1", "stereo": "stereo not drawn", "LdMetRS": 14.84}
{"compound": "Cc1cc(N2CCC(N(C)C(=O)c3ccccc3F)CC2)nc(C)n1", "LdMetRS": 19.23, "Mtb heat-shock": -10.15}
{"compound": "CN1CCNC(=O)C12CCN(Cc1ccco1)CC2.O=C(O)C(F)(F)F.O=C(O)C(F)(F)F", "Mtb heat-shock": -24.47}
{"compound": "CCn1cc(CN2CCC(c3nnc(CN(C)C)n3CC)CC2)cn1", "LdMetRS": 7.874, "Mtb heat-shock": -3.453}
{"compound": "Cn1c(=O)c2cc(C(=O)NCc3ccccn3)ccc2n(C)c1=O", "LdMetRS": 10, "Mtb heat-shock": -19.17}

The first 2 entries again:

{"compound": "COc1cc(N2C[C@@H]3COC[C@]3(COc3ccccn3)C2)ncn1", "LdMetRS": 4.11}
{"compound": "[H][C@@]12C[C@H](C(=O)NCC(C)C)[C@@]([H])(CN(c3ncc(CC)cn3)C1)O2", "Mtb heat-shock": 3.677}

Data taken from ChEMBL document CHEMBL3988442, “University of Dundee, Small-Polar-MMV Screening Library” (2021).